Assay: Body weight, food intake and water intake of Pioglitazone-treated ZDF rats
Format: in vivo, rat
Details: all treated groups; increased from ≈30 g; 10 mg/kg/d food-admix
Method: ZDF and ZL rats were ordered at the age of 5 W. After arrival and following 1 week of adaptation, 1 ml of blood was collected retro-orbitally after a short narcosis (isoflurane) in 6 W-old rats. […] A group of 10 ZL rats was formed and followed as a control group along the study duration (FIG. 3). Three groups of ZDF rats receive either vehicle (untreated) or Pioglitazone (treated) as food Admix. In each untreated/treated group of ZDF rats, one is fed a high fat diet during 11 weeks (group_full), during 4 weeks (group_mild) or during 2 weeks (group_low). Treatment was administered orally and prepared as food-admix. This mode of administration was preferred over oral gavage to reduce stress to the animals, avoid dosing errors and minimize handling. Pioglitazone (sufficient for 90 kg food) was dissolved in 18 liters of water. For the three treatment groups of 10 rats each, 6 liters of solution was combined with 30 kg of the diabetogenic diet (KLIBA 2437 with 7% of fat) or 12 liters were mixed with 60 Kg of the chow diet (Kliba 3436). The food was carefully dried at a temperature not exceeding 40° C. and then pelleted. […] The graphs and tables present the data according to expected daily dose. […] Body weight and food consumption were recorded with an on-line data acquisition system ([…]) using electronic balances.

SMILES: CCc1ccc(CCOc2ccc(CC3SC(=O)NC3=O)cc2)nc1.Cl (racemic) [Pioglitazone, (±)-5-[[4-[2-(5-ethyl-2-pyridinyl)ethoxy]phenyl]methyl]-2,4-]
- daily food intake (measured over 24 hours): ≈ 50 g
